{"source": "paper PMC11569188", "binders": {"B1": {"name": "fluorescein isothiocyanate-labelled phosphopeptide FYp (FITC-GABA-S-pY-V-N-V-Q) (peptide)", "peptide": "SYVNVQ", "modifications": "here or on the partner: FITC-GABA on the N-terminus; phosphotyrosine (pY) at position 2; biotin on the BAP tag (in vivo biotinylation)"}}, "molecular_target": "Grb2 SH2 domain (BAP-tagged), P62993", "assay": "fluorescence polarisation; competition: Affimer diluted twofold from 20 µM over 12 wells, 20 nM FYp, 0.25 µM Grb2 SH2; 50 mM Tris, 100 mM NaCl, pH 7.4; 24 °C; both purified", "conditions": "remark: other sources report otherwise", "note": "No constants are given. Whether binding was seen depends on the method and setting. Some binding calls cover weakened binding; strength is not graded here.", "data": [{"binder": "B1", "values": [{"measurement": "binding", "result": "binds"}]}]}
